One substance from paper PMC5993538, “The plant-specific transcription factors CBP60g and SARD1 are targeted by a Verticillium secretory protein VdSCP41 to modulate immunity” can be followed below.

Amino acid sequences for entries named in this document (tags omitted).
UniProt Q9C9T2: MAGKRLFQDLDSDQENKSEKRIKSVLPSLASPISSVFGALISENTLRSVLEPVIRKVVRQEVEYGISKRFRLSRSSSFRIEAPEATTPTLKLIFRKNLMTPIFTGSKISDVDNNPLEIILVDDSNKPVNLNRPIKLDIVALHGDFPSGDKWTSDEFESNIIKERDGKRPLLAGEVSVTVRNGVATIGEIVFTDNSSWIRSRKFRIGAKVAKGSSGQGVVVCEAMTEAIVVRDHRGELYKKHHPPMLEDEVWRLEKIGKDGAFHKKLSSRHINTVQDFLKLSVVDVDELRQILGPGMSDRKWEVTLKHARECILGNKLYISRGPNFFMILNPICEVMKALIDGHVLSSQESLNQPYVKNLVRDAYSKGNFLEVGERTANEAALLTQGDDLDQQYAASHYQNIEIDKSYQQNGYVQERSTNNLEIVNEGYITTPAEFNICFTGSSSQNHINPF

These are yes or no findings as the source states them, for the method shown. In cells and extracts the contact can be indirect. Tags and fused reporters may be left off the sequences shown.

For the assay, the target named is T1, CLuc-CBP60g (Arabidopsis) (UniProt F4K2R6).
T1 sequence: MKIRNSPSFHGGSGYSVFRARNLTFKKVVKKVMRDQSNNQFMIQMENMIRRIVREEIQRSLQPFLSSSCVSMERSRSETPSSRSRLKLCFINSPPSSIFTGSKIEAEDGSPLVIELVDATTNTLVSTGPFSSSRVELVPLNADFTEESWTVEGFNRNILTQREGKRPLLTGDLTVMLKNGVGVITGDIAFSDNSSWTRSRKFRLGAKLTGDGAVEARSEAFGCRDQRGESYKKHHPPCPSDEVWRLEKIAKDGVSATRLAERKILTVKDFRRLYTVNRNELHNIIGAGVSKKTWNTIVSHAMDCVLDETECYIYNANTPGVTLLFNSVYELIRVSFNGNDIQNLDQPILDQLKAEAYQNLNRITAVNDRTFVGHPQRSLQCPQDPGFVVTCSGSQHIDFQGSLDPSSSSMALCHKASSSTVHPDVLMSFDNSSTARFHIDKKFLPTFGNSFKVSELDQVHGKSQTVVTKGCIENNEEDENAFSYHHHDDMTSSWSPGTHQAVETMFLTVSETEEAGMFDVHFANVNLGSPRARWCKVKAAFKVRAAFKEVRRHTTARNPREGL
Description: split reporter; luciferase complementation imaging in N. benthamiana leaves, Agrobacterium-infiltrated NLuc- and CLuc-tagged constructs, LUC activity 2 days post infiltration, CCD imaging and microplate luminometer.

Regarding “NLuc-tagged SARD1 (from UniProt Q9C9T2 1-451)”, the binding entry is listed as “no binding”.
